Some of the results follow. The data scatter; read single values as rough.
How the values were obtained:
[1] = compound: ClCC(=O)N[C@@H]1CCCc2ccccc12; assay: log2 mean competition ratio of IA-DTB cysteine labelling (DMSO/compound) (log2 ratio); higher = stronger cysteine engagement by compound; settings: treatment time: 4 h, cell line lysate: HEK293T
Procedure: (§1)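 IA-DTB competitive cysteine chemoproteomics in HEK293T RIPA lysate. Lysates were treated with compound 29 or 30 at 50 or 200 µM for 4 h, then IA-DTB (500 µM, 1 h), trypsin-digested, NeutrAvidin-enriched and analysed by diaPASEF. Competition ratio = intensity DMSO / intensity compound (n=4 treated, n=64 DMSO); binding: mean log2 CR ≥ 1 and p ≤ 0.05 plus QC filters. Target is the cysteine site.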

[2] = compound: ClCC(=O)N[C@H]1CCCc2ccccc12; assay: as above; settings: treatment time: 4 h, cell line lysate: HEK293T
Procedure: as §1

Target | log2 mean competition ratio ([1]; 50 µM) | log2 mean competition ratio ([1]; 200 µM) | log2 mean competition ratio ([2]; 50 µM) | log2 mean competition ratio ([2]; 200 µM)
RASA3 C328 (UniProt Q14644) | -0.171 | 0.52 | -0.404 | 0.0298
RBM26 C25 (UniProt Q5T8P6) | -0.216 | -0.156 | -0.312 | -0.0869
REV1 C1106 (UniProt Q9UBZ9) | 0.0945 | 0.026 | 0.0691 | -0.006
RECQL C447 (UniProt P46063) | 0.273 | -0.22 | 0.806 | -0.342
RBM34 C196 (UniProt P42696) | 0.0586 | 0.09 | -0.132 | 0.232
RAP1GDS1 C144 (UniProt P52306) | -0.174 | -0.196 | -0.0141 | -0.0666
RANBP2 C188 (UniProt P49792) | -0.00132 | -0.123 | -0.181 | -0.138
RADX C136 | -0.116 | -0.16 | 0.0179 | -0.108
RAPGEF1 C328 (UniProt Q13905) | -0.253 | 0.132 | -0.0707 | 0.0832
RANBP2 C2791 (UniProt P49792) | -0.395 | 0.297 | 0.135 | -0.244
RIF1 C2450 (UniProt Q5UIP0) | 0.277 | -0.447 | 0.6 | -0.152
RALGAPA2 C169 (UniProt Q2PPJ7) | -0.125 | 0.106 | -0.0183 | 0.139
RIC8B C373 (UniProt Q9NVN3) | -0.443 | 0.249 | -0.379 | 0.112
RB1CC1 C853 (UniProt Q8TDY2) | 0.133 | -0.0435 | 0.272 | -0.198
RMND5A C308 (UniProt Q9H871) | 0.256 | 0.195 | 0.142 | 0.0227
RCC2 C42 (UniProt Q9P258) | 0.0291 | -0.035 | 0.0198 | -0.0951
RAF1 C81 (UniProt P04049) | 0.629 | 0.247 | 1.11 | -0.0954
RASA1 C576 (UniProt P20936) | 0.302 | 0.0282 | 0.276 | 0.000802
RHOG C157 (UniProt P84095) | 0.117 | 0.00583 | 0.0776 | -0.0167
RB1CC1 C831 (UniProt Q8TDY2) | 0.0239 | 0.0615 | -0.499 | 0.0899
RCC1L C181 (UniProt Q96I51) | 0.155 | -0.0888 | 0.279 | -0.0314
RLF C1494 (UniProt Q13129) | 0.128 | -0.434 | 0.142 | 0.0774
RIF1 C1692 (UniProt Q5UIP0) | -0.0437 | 0.186 | 0.000672 | 0.264
RHOB C16 (UniProt P62745) | -0.103 | -0.325 | 0.456 | -0.0893

Target | log2 mean competition ratio ([1]; 50 µM) | log2 mean competition ratio ([1]; 200 µM) | log2 mean competition ratio ([2]; 50 µM) | log2 mean competition ratio ([2]; 200 µM)
RBM15B C128 (UniProt Q8NDT2) | -0.177 | -0.277 | 0.491 | -0.142
RIMOC1 C179 | -0.114 | 0.302 | -0.028 | 0.182
RASAL1 C30 | 0.111 | -0.189 | 0.214 | 0.1
RANBP2 C1196 (UniProt P49792) | -0.349 | 0.305 | -0.181 | 0.591
RARS1 C312 | -0.149 | -0.154 | 0.531 | 0.112
RB1CC1 C1236 (UniProt Q8TDY2) | 0.298 | -0.124 | -0.3 | -0.126
RALGAPA1 C1712 (UniProt Q6GYQ0) | 0.767 | -0.425 | 0.748 | -0.369
RMND5A C4 (UniProt Q9H871) | -0.165 | -0.159 | -0.153 | 0.0682
RASAL1 C761 | -0.197 | -0.231 | -0.156 | -0.198
RBM10 C219 (UniProt P98175) | -0.19 | 0.0776 | -0.316 | 0.196
RBM41 C43 (UniProt Q96IZ5) | 0.208 | -0.03 | -0.00644 | 0.148
RBBP6 C1566 (UniProt Q7Z6E9) | 0.059 | 0.0194 | -0.018 | 0.125
RBBP7 C97 | -0.221 | -0.259 | -0.204 | -0.15
RB1CC1 C282 (UniProt Q8TDY2) | 0.101 | -0.0378 | -0.38 | 0.133
RETREG2 C187 (UniProt Q8NC44) | -0.376 | 0.0373 | 0.213 | 0.279
RANBP2 C707 (UniProt P49792) | -0.363 | -0.0111 | -0.297 | -0.0908
RBM27 C49 (UniProt Q9P2N5) | 0.552 | 0.0145 | 0.325 | 0.0751
RFXAP C185 (UniProt O00287) | 0.0545 | -0.119 | 0.0893 | -0.167
RFWD3 C379 (UniProt Q6PCD5) | -0.057 | 0.363 | -0.024 | 0.416
RAI14 C468 (UniProt Q9P0K7) | -0.0216 | 0.272 | 0.279 | 0.174
RAPGEF1 C351 (UniProt Q13905) | 0.0265 | -0.0963 | -0.0636 | 0.216
RMND5A C25 (UniProt Q9H871) | 0.436 | 0.0424 | -0.0183 | 0.0516
RCCD1 C42 (UniProt A6NED2) | -0.288 | 0.049 | -0.403 | 0.0922
RAPGEF1 C474 (UniProt Q13905) | -0.142 | 0.0906 | -0.0236 | 0.255

7 successive records already listed, for reference:
Target | log2 mean competition ratio ([1]; 50 µM) | log2 mean competition ratio ([1]; 200 µM) | log2 mean competition ratio ([2]; 50 µM) | log2 mean competition ratio ([2]; 200 µM)
RARS1 C312 | -0.149 | -0.154 | 0.531 | 0.112
RB1CC1 C1236 (UniProt Q8TDY2) | 0.298 | -0.124 | -0.3 | -0.126
RALGAPA1 C1712 (UniProt Q6GYQ0) | 0.767 | -0.425 | 0.748 | -0.369
RMND5A C4 (UniProt Q9H871) | -0.165 | -0.159 | -0.153 | 0.0682
RASAL1 C761 | -0.197 | -0.231 | -0.156 | -0.198
RBM10 C219 (UniProt P98175) | -0.19 | 0.0776 | -0.316 | 0.196
RBM41 C43 (UniProt Q96IZ5) | 0.208 | -0.03 | -0.00644 | 0.148

More results follow.

Target | log2 mean competition ratio ([1]; 50 µM) | log2 mean competition ratio ([1]; 200 µM) | log2 mean competition ratio ([2]; 50 µM) | log2 mean competition ratio ([2]; 200 µM)
RHOT2 C543 (UniProt Q8IXI1) | -0.0259 | -0.107 | 0.53 | -0.151
RETSAT C534 (UniProt Q6NUM9) | 0.346 | 0.344 | 0.186 | 0.176
RBM20 C1077 (UniProt Q5T481) | -0.00215 | -0.0386 | 0.144 | 0.117
RBX1 C94 (UniProt P62877) | -0.293 | 0.0633 | 0.121 | 0.0603
RCHY1 C136 (UniProt Q96PM5) | 0.132 | -0.254 | 0.634 | 0.153
RFT1 C70 (UniProt Q96AA3) | 0.197 | -0.32 | -0.0771 | -0.232
RBM22 C179 (UniProt Q9NW64) | -0.217 | 0.131 | -0.146 | 0.0414
RBM28 C125 (UniProt Q9NW13) | -0.00699 | -0.00901 | -0.0918 | 0.00698
RANBP9 C594 (UniProt Q96S59) | -0.45 | 0.349 | 0.182 | 0.256
RFC4 C48 (UniProt P35249) | -0.135 | 0.366 | 0.131 | 0.369
RBM19 C77 (UniProt Q9Y4C8) | -0.0245 | 0.233 | -0.0059 | 0.184
RIPOR1 C1191 (UniProt Q6ZS17) | -0.159 | 0.161 | -0.031 | 0.0621
RANBP6 C188 (UniProt O60518) | 0.449 | -0.0521 | -0.486 | -0.0395
RNASEH2A C24 (UniProt O75792) | -0.0789 | 0.112 | 0.293 | 0.156
RARS1 C502 | -0.155 | 0.0275 | 0.0983 | 0.0172
RAI1 C1015 (UniProt Q7Z5J4) | 0.00747 | 0.376 | 0.0455 | 0.396
RFC5 C238 (UniProt P40937) | 0.105 | 0.0298 | -0.255 | -0.129
RBM48 C258 (UniProt Q5RL73) | -0.191 | 0.193 | -0.0639 | 0.118
RBL1 C1047 (UniProt P28749) | -0.0397 | 0.233 | -0.583 | 0.0648
RIPK2 C324 (UniProt O43353) | -0.068 | 0.184 | -0.0604 | 0.202
RICTOR C1631 (UniProt Q6R327) | 0.165 | 0.342 | -0.451 | 0.196
RDH13 C201 (UniProt Q8NBN7) | -0.114 | -0.118 | -0.0476 | -0.19
RESF1 C1491 (UniProt Q9HCM1) | -0.0523 | 0.219 | -0.147 | 0.234
RASA1 C906 (UniProt P20936) | -0.0143 | -0.287 | -0.0304 | -0.425

Target | log2 mean competition ratio ([1]; 50 µM) | log2 mean competition ratio ([1]; 200 µM) | log2 mean competition ratio ([2]; 50 µM) | log2 mean competition ratio ([2]; 200 µM)
RASAL2 C360 (UniProt Q9UJF2) | -0.0797 | 0.217 | -0.421 | 0.041
RB1 C61 (UniProt P06400) | -0.374 | -0.0144 | 0.00854 | 0.0206
RALGAPA1 C1428 (UniProt Q6GYQ0) | -0.0753 | -0.165 | 0.768 | -0.033
RESF1 C962 (UniProt Q9HCM1) | 0.394 | -0.0336 | 0.0681 | 0.168
RALGAPA1 C257 (UniProt Q6GYQ0) | 0.00099 | -0.613 | 0.133 | -0.333
RHBDD3 C202 (UniProt Q9Y3P4) | -0.00671 | 0.613 | -0.316 | 0.347
RANBP2 C220 (UniProt P49792) | 0.229 | -0.0993 | 0.832 | -0.185
RBL2 C274 (UniProt Q08999) | -0.395 | 0.0318 | 0.0298 | 0.0479
RANBP6 C31 (UniProt O60518) | 0.23 | 0.226 | 0.195 | 0.233
RANBP2 C1335 (UniProt P49792) | -0.101 | 0.134 | -0.111 | 0.0993
RIF1 C1718 (UniProt Q5UIP0) | -0.0348 | 0.0508 | 0.143 | -0.0307
REXO1 C389 (UniProt Q8N1G1) | -0.0246 | -0.173 | 0.174 | -0.0267
RHOC C159 (UniProt P08134) | 0.177 | 0.0872 | -0.194 | 0.000361
RAPGEF6 C1413 (UniProt Q8TEU7) | 0.0656 | 0.0576 | 0.43 | -0.0514
RING1 C398 (UniProt Q06587) | 0.208 | 0.12 | -0.244 | 0.0653
RASAL2 C415 (UniProt Q9UJF2) | -0.0281 | 0.225 | -0.328 | 0.0797
RBMXL1 C338 (UniProt Q96E39) | 0.127 | 0.0859 | 0.235 | 0.263
RANBP9 C610 (UniProt Q96S59) | -0.018 | 0.53 | -0.0256 | 0.385
RIPOR1 C1016 (UniProt Q6ZS17) | -0.58 | -0.179 | 0.197 | 0.145
RARA C148 | -0.0704 | -0.0551 | 0.0251 | 0.0228
RARS1 C150 | -0.0841 | 0.0265 | -0.263 | -0.079
RERE C41 (UniProt Q9P2R6) | -0.139 | -0.141 | -0.0815 | 0.219
RIOX2 C19 (UniProt Q8IUF8) | 0.179 | -0.0681 | 0.0631 | -0.0981
RECQL C471 (UniProt P46063) | 0.152 | 0.11 | 0.356 | -0.0222

From the supplement of paper PMC11732987, “Enantioselective OTUD7B fragment discovery through chemoproteomics screening and high-throughput optimisation” (Communications Chemistry, 2025)
